# Source: paper doi:10.1101/783837
# Sequences of proteins named here, by UniProt entry; tags and fusion partners are left off.
# UniProt Q10658: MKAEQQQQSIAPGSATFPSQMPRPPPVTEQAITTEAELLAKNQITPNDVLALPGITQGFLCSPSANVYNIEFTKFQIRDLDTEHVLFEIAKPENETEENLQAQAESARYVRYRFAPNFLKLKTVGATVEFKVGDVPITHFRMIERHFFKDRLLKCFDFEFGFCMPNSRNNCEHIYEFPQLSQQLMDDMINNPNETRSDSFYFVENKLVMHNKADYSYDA
# Results are given in words; binding and its absence hold for the method and conditions named. In cells and extracts the contact can be indirect. These calls come from enrichment with a bait or labelling near it, and not all partners need be listed.
# B1: UNC-33 (CRMP) (protein, UniProt Q01630 1-854)
# chain: MFPFLAPIRSANHVEQQGTKYYVEITFLADSPYSRAPSSTGTEKSVIPTLRNLDDLETVSNKSRSSEGVNKLGSRPNSRSSAIVKKTSVSSLPTSARSEGKSSPIPVKDAIPAPARHKNKGLEMSSAMMELFGGGGSTSPAPSKRENPADAPSDRVVSNAKLSQPGPEWFEGFEQMDMTDIELPPDPNCPAEKVLRGEKSTPDFDSDWQEAKEDVLDPQSYPKSFNPAESLPGPDIGAGVDDEEEPEAEAQEMEEPQYESKVDEKDDDDNGSSSSKKGHPSEDGDSTRNGETPTDRRNSGAIEETADGESSAQSAAEKKNSGDDGNGGGGEMSILLVKNAQIVNDDAIFVADILIEDGIIQNVAPNLEAPEGAEVLDAAGKLALPAGIDVYTQVTDSSVDDLSTGCKSAIAGGTGTIVEVVRPRGAESVVSAVKRVKNQLEKSGISCHVALSVAITDFCEQEMSELVKNEGINSFVLDGVSLTDDKLLELFEHVKRLGALIRVVPENKSIVAMLEKKMLKLGVTGPEGFPQSRPESLEADRVSGVCVLGNLASCPISIVQVSSADSLAAIEKARASGALAHAEIASAAVTADGSALFSQDLRFASAHLTDVPLRRGAPDRMIGALSTQPLVVCTSGHRPVNSATRVAAKDFAIAQKGSTGAEERMAVVWERAVRSGRIDAMRFVAVTSTNAAKMFNMYPKKGRIAVGADADLVIWDASGKRVLESSRAQSSQENSMYDGLTVHSVVTATIVGGKIAYQNGEVREAPVAGGFLRLSPNSPYLFSMVGQRDKFANVERVEREASSQQQKPQQNGHHKNSGDFDRNRTKVMESSIDFGGSAANRPRNPPGGRTTGFW
# Biological target: UNC-119::GFP (unc-119::gfp knock-in) (C. elegans) (UniProt Q10658)
# Test: affinity purification with mass spectrometry
binder,measurement,value
B1,binding,binds
